Literature values, collected in publication PMC7308271, “Discovery of a new class of orthosteric antagonists with nanomolar potency at extrasynaptic GABAA receptors” (Scientific Reports, 2020).

Biological target: [^3H]muscimol binding (GABAΑ receptors) in rat brain cortical homogenate
Conditions: reference, ref Krall et al.[48]; cited from earlier work

NCCCC(=O)O [GABA]
Ki: 49 nM
